# Measured values taken from PubChem BioAssay AID1688 (National Center for Advancing Translational Sciences (NCATS), 2009).
# Screen size: about 220,000 compounds; about 2,400 (1.1%) were called active. Inconclusive means that the source gave no clear call. Such entries were picked first, then a sample of the others. The call rests on the fitted dose curve; in most records, active means well fitted inhibition curve with a large enough effect; inconclusive means small, poorly fitted or top-dose-only effect, or effect the other way; inactive means no such curve, though single readings can be large or run the other way. A potency beside an inconclusive call is a rough fit, not a confirmed value.
# Assay: qHTS Multiplex Assay to Identify Dual Action Probes in a Cell Model of Huntington: Aggregate Formation (GFP); further: nearly all actives have a fitted effect of over 60% in size
# Details: PC12 HttQ103-GFP aggregates, Acumen cytometry, 40 h; activity change, negative = inhibition: at 46.1 µM (top of the series) unless noted
# How it was run: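 PC12 cells with ecdysone-inducible HTT exon1 Q103-GFP, induced by 100 nM tebufenozide, given compounds in a concentration series. GFP aggregates (1–25 um, 6 SD above background) counted in lysates by laser-scanning cytometry, 488 nm excitation.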
# On the % scale 0 is the no-effect control and ±100 the full control effect; potency means the concentration at half of the fitted maximal effect.
SMILES,"activity change, negative = inhibition",Potency
O=S(=O)(NC1CCc2ccccc21)c1ccc(S(=O)(=O)N2CCCC2)cc1 (stereo unspecified),inactive: -19.9%,
COCCOC(=O)C1=C(C)OC(N)=C(C#N)C1c1ccc2c(c1)OCO2 (stereo unspecified),,"inconclusive: 10 µM [activator, partial curve, poor fit]"
CCOc1ccc(C2=Nn3c(nnc3-c3ccc(OC)cc3)SC2)cc1,inactive: 29.6%,
CN(C)S(=O)(=O)n1cnc(-c2ccccc2)c1-c1ccccc1,inactive: 9.37%,
CC1CCN(c2ccc(NC(=S)NC(=O)c3ccc(-c4cccc([N+](=O)[O-])c4)o3)cc2)CC1,,"inconclusive: 15.8 µM [activator, single point]"
CSC1=NSC2=NC(=O)/C(=C\c3cccs3)C(=N)N12,,"inconclusive: 35.5 µM [inhibitor, single point]"
CCN1C(=O)CSc2ccc(C(=O)NC3CCCCC3)cc21,inactive: -12.4%,
Nc1ncnc(Sc2ncccn2)c1[N+](=O)[O-],,active: 5.01 µM
CCCCSC1=C(C#N)C(c2ccccc2C)C(C(=O)OCC)C(=O)N1 (stereo unspecified),,"inconclusive: 12.6 µM [inhibitor, single point]"
Cc1ccc(-n2c(C)cc(C(=O)CSc3nncs3)c2C)cc1,,active: 10 µM
C=CCc1cccc(CNc2nc3ccccc3n2CCC)c1O,,"inconclusive: 14.1 µM [inhibitor, single point]"
CCCCn1c(SCc2ccc(C(=O)OC)o2)nc2cc(S(N)(=O)=O)ccc21,inactive: 7.03%,
C=CCN(CC=C)C(=S)NC(=O)c1ccc([N+](=O)[O-])cc1,,"inconclusive: 2.24 µM [activator, partial curve]"
CC1(C)Cc2c(c(N3CCOCC3)nc3snc(N)c23)CO1,,active: 25.1 µM
COc1cccc(NC(=O)CSc2nc3c([nH]c4ccccc43)c(=O)n2C)c1,,"inconclusive: 6.31 µM [activator, partial curve]"
S=C(Nc1ccccc1)Nc1ccc(OCc2ccc(Cl)cc2Cl)cc1,inactive: -14.9%,
O=C(N/N=C/C(Cl)=C/c1ccc([N+](=O)[O-])cc1)C(=O)Nc1ccc(C(=O)O)cc1,inactive: 12% [at 9.22 µM],
CC(C)=CCc1c2c(c3occ(-c4ccc(O)cc4)c(=O)c3c1O)C=CC(C)(C)O2,,"inconclusive: 15.8 µM [inhibitor, single point]"
O=C(CCCn1c(SCC(=O)NC2CCCCC2)nc2ccccc2c1=O)NCC1CCCO1 (stereo unspecified),inactive: 13.2%,
COCCn1c(N)c(C(=O)OCc2ccccc2)c2nc3ccccc3nc21,,"inconclusive: 25.1 µM [inhibitor, single point]"
O=C(Nc1ccc(O)cc1)c1cc2ccccc2c(=O)s1,inactive: -28% [at 9.22 µM],
CCCCS(=O)CC(COC)OC(=O)c1ccccc1 (stereo unspecified),inactive: -17.3%,
COc1ccc(C(=O)c2sc(Nc3ccccc3)c(C(=O)Nc3ccc(OC)c(OC)c3)c2N)cc1,inactive: 4.26%,
CC(C)N1C(=O)/C(=C\c2nc3ccccc3c(=O)n2-c2ccccc2)c2ccccc21,,"inconclusive: 35.5 µM [inhibitor, single point]"

SMILES,"activity change, negative = inhibition",Potency
CCOC(=O)CN1C(=O)N[C@H](c2ccc(Br)cc2)C(C(C)=O)=C1C,,"inconclusive: 31.6 µM [activator, single point]"
CCN1CCCC1CNC(=O)C1CCN(Cc2nc(-c3cccc(Br)c3)oc2C)CC1 (stereo unspecified),,"inconclusive: 35.5 µM [inhibitor, single point]"
Cc1cc(SCC(=O)c2ccc(O)c(O)c2)nc2ccccc12,inactive: -12% [at 9.22 µM],
CC(C)COP(=O)(OCC(C)C)C(Nc1ccccc1)c1ccc2c(c1)OCO2 (stereo unspecified),,"inconclusive: 20 µM [inhibitor, single point]"
Cc1sc(NC(=O)c2ccco2)c(C(c2cccnc2)N2CCC(C)CC2)c1C (stereo unspecified),,"inconclusive: 4.47 µM [inhibitor, full curve]"
O=C(c1ccccc1)c1c(O)nc(-c2ccccc2)n(-c2ccccc2)c1=O,,"inconclusive: 3.16 µM [activator, partial curve]"
Cc1[nH]c2ccccc2c1C(=O)COC(=O)c1c(-c2c(F)cccc2Cl)noc1C,,"inconclusive: 35.5 µM [inhibitor, single point]"
O=C(CCl)N(c1ccccc1)c1ccccc1,,active: 10 µM
CCC(CC)NC(=O)COC(=O)c1ccc(NS(=O)(=O)c2ccc3c(c2)OCCO3)cc1,inactive: -3.43%,
CC(=O)Oc1ccc(-c2ccc(C(=O)Nc3cccc(S(=O)(=O)N4CCOCC4)c3)cc2)cc1,,"inconclusive: 17.8 µM [inhibitor, single point]"
CC(C)CN1CC(C(=O)O)CC1=O (stereo unspecified),inactive: 6.29% [at 9.22 µM],
O=C(NC(Nc1nc2ccc([N+](=O)[O-])cc2s1)(C(F)(F)F)C(F)(F)F)c1ccccc1Cl,,active: 0.316 µM
Cc1ccc(-c2nc(Nc3ccc(N4CCOCC4)cc3)c3ccccc3n2)cc1,inactive: -8.99% [at 9.22 µM],
Cc1ccc(/C=C2\SC(=S)N(C(Cc3ccccc3)C(=O)O)C2=O)cc1 (stereo unspecified),inactive: 13.4%,
COc1ccc(C2CC(C(F)(F)F)n3ncc(C(=O)NCc4cccnc4)c3N2)cc1OC (stereo unspecified),inactive: 5.49%,
CCCCCCCCCCCC(=O)c1c(O)cccc1O,,"inconclusive: 11.2 µM [inhibitor, single point]"
O=c1c2c3nc4ccccc4nc3n(/N=C/c3ccco3)c2ncn1CCC1=CCCCC1,,"inconclusive: 0.501 µM [inhibitor, full curve, poor fit]"
O=C(Oc1ccc(OC(=O)c2ccco2)c(S(=O)(=O)c2ccc(Br)cc2)c1)c1ccco1,inactive: 11.2%,
Cc1ccc(S(=O)(=O)c2nc(Nc3ccccc3)sc2Cl)cc1,,"inconclusive: 35.5 µM [inhibitor, single point]"
CN1/C(=C\C(=O)COC(=O)CN2C(=O)C3CC=CCC3C2=O)C(C)(C)c2ccccc21 (stereo unspecified),,"inconclusive: 25.1 µM [inhibitor, single point]"
COC(=O)c1ccc(Cl)c(NC(=O)Cc2ccccc2[N+](=O)[O-])c1,,"inconclusive: 3.55 µM [inhibitor, single point]"
Nc1ccc2c3c(cccc13)C(=O)N(c1ccccc1)C2=O,,"inconclusive: 10 µM [inhibitor, partial curve]"
O=C(Cn1nc(-c2ccccc2)c2ccccc2c1=O)Nc1ccc2c(c1)nc1n2CCOC1,,"inconclusive: 14.1 µM [activator, single point]"
COc1ccc(CN2CN(C3CCCC3)CSC2=S)cc1,,"inconclusive: 35.5 µM [inhibitor, single point]"

SMILES,"activity change, negative = inhibition",Potency
Cc1cccnc1NC(=S)NC(=O)/C=C/c1ccco1,,"inconclusive: 35.5 µM [activator, single point]"
Cc1cccc(Nc2ncnc(N)c2[N+](=O)[O-])n1,,"inconclusive: 22.4 µM [inhibitor, single point]"
O=C(NC12CC3CC(CC(C3)C1)C2)N1CCN(S(=O)(=O)c2ccc(Cl)cc2)CC1,,"inconclusive: 35.5 µM [inhibitor, single point]"
CCOC(=O)N1CCc2c(sc3ncn(C)c(=O)c23)C1,inactive: 5.69% [at 9.22 µM],
O=C(CSc1nnc(-c2ccccn2)n1Cc1ccco1)c1ccc(Cl)cc1,inactive: 21.8%,
Cc1nc(NCc2ccco2)c2oc3ccccc3c2n1,,"inconclusive: 2.51 µM [inhibitor, partial curve]"
CCc1ccc(OCC(=O)NC(NC(=S)Nc2ccccc2)C(Cl)(Cl)Cl)cc1 (stereo unspecified),inactive: -11.6%,
Cc1cc2cc(CCNC(=O)c3ccc(Br)o3)c(=O)[nH]c2cc1C,inactive: 3.39%,
CSc1ncc(CN2CCc3c([nH]c4ccccc34)C2c2cccc(O)c2)cn1 (stereo unspecified),,"inconclusive: 2.82 µM [activator, partial curve]"
COc1ccc(Cn2c(SCc3ccccc3C)nc3cc(OC)c(OC)cc3c2=N)cc1,,"inconclusive: 28.2 µM [inhibitor, single point]"
COc1cc2c(C#N)c(N3CCc4ccccc4C3)nc(N)c2c(N)n1,,"inconclusive: 28.2 µM [inhibitor, partial curve]"
Cc1ccc(/C=C/C(=O)N2CC(C)CC(C)C2)o1 (stereo unspecified),inactive: 19.7%,
O=C(NCCC1=CCCCC1)C1CCC(CNc2nc(=S)[nH]c3ccccc23)CC1 (stereo unspecified),,"inconclusive: 35.5 µM [inhibitor, single point]"
COc1ccc(CNC(=O)C(c2ccc(C)o2)N(C(=O)c2csnn2)c2ccc(C(C)C)cc2)cc1 (stereo unspecified),,"inconclusive: 35.5 µM [inhibitor, single point]"
COc1ccc(NC(=S)NCCSc2ccc(Cl)cc2)c(OC)c1,,"inconclusive: 5.62 µM [inhibitor, single point]"
Cc1ccc(C(=O)Nc2cccc(C(=O)NCc3ccco3)c2)cc1,,"inconclusive: 22.4 µM [inhibitor, single point]"
O=C(/C=C/Nc1ccccc1Oc1ccccc1)c1ccco1,,"inconclusive: 5.62 µM [inhibitor, single point]"
Cc1cc(SCC(=O)c2cccs2)nc2ccccc12,,"inconclusive: 35.5 µM [inhibitor, single point]"
O=C1c2ccccc2C(=O)N1CCCCN(C(=O)c1ccco1)c1ccc(Cl)cc1,inactive: -6.27%,
O=C(Nc1ccc2ccccc2c1)c1cn(-c2ccccc2)nc1-c1cccs1,inactive: -23.6%,
Cc1c(Br)c([N+](=O)[O-])nn1CC(=O)N1CCc2ccccc2C1,,"inconclusive: 5.62 µM [inhibitor, single point]"
O=C(NCc1ccco1)c1ccc(Cl)nc1,inactive: -5.03% [at 9.22 µM],
Cc1onc(-c2ccccc2Cl)c1C(=O)N1CCN(C(=O)c2ccco2)CC1,,"inconclusive: 6.31 µM [activator, single point]"

# Among those listed so far, 3 contain a COOH group:
SMILES,"activity change, negative = inhibition",Potency
O=C(N/N=C/C(Cl)=C/c1ccc([N+](=O)[O-])cc1)C(=O)Nc1ccc(C(=O)O)cc1,inactive: 12% [at 9.22 µM],
CC(C)CN1CC(C(=O)O)CC1=O (stereo unspecified),inactive: 6.29% [at 9.22 µM],
Cc1ccc(/C=C2\SC(=S)N(C(Cc3ccccc3)C(=O)O)C2=O)cc1 (stereo unspecified),inactive: 13.4%,
